{"sequences": {"note": "Sequences of proteins named here, by UniProt entry; tags and fusion partners are left off. A change or cut given only in a name is not applied to a line headed by its entry.", "UniProt Q9Y3R4": "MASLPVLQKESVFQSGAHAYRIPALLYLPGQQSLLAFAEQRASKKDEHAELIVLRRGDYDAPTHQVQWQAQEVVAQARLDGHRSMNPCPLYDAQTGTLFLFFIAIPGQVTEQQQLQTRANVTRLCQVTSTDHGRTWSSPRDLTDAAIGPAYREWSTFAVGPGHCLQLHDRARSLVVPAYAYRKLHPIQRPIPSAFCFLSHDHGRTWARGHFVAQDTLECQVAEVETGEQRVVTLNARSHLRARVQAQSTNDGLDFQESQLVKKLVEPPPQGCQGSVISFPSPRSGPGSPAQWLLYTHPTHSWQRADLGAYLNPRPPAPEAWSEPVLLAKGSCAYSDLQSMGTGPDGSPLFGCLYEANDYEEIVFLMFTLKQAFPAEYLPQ"}, "source": "paper PMC6646405", "about": "“A quantitative, high-throughput method identifies protein–glycan interactions via mass spectrometry” (Communications Biology, 2019)", "target": "T1, human neuraminidase 2 (NEU2) (Homo sapiens, UniProt Q9Y3R4)", "T1 construct": "made in house", "assay": "Time-resolved CUPRA enzyme kinetics, NEU2", "format": "biochemical", "protocol": "To apply CUPRA in this capacity, two or more substrates of interest are introduced, as their corresponding OS^mod, to a solution containing the desired CAZyme. Changes in substrate concentrations, as well as those of the corresponding enzyme products, are determined from the relative abundances of OS^mod-bound ^UniPproxy measured by time-resolved ESI-MS. Because of the manner in which the substrate and product concentrations are measured, the assay is insensitive to differences in their ESI-MS response factors and, consequently, independent of the nature of the chemical modification catalyzed by the enzyme. As a result, time-resolved CUPRA eliminates the need for calibration curves or internal standards, which are generally required with ESI-MS-based enzyme kinetics assays.\nTwo glycosyl hydrolases, human neuraminidase 2 (NEU2) and 3 (NEU3), which preferentially cleave α2-3-linked Neu5Ac residues, were used to illustrate the ease with which time-resolved CUPRA can establish substrate specificities. We incubated libraries of the Neu5Ac-containing OS^mod with NEU2 (Fig. 2d) or NEU3 (Fig. 2e) and monitored their conversion to the corresponding desialylated OS^mod products at pH 7 and 25 °C. […] All OS^mod containing terminal α2-3-linked Neu5Ac were substrates of NEU3, with initial rates that are 10–50% that of HMO03. […] Substrates containing branching after the α2-3-linkage were poor substrates for both enzymes. […] We note, however, that previous reports have examined NEU2 and NEU3 activity under more acidic solution conditions. Furthermore, the nature of the substrate aglycone may influence the activity of human neuraminidases.\nThe time-resolved CUPRA measurements were performed by manually mixing aliquots of stock solutions of NEU2 or NEU3 (final concentration 2 µM), ^UniPproxy (5 µM), substrates (Si, 5 µM each) and CUPRA linker (5 µM), all in 200 mM aqueous ammonium acetate at pH 7 and 25 °C. ESI mass spectra were collected continuously at the rate of 30 scans min^−1 starting at 3 min after mixing. The adduct distributions measured for the ^UniPproxy – CUPRA linker complex ions were used to apply SWARM. The time-dependent fractional abundance of a given substrate (FS,i) (Eq. 12), which was used to represent reaction progress, was calculated from the total Ab of ^UniPproxy bound to Si and corresponding product (Pi), corrected for Si consumed prior to data acquisition.12 FS,i=Ab^UniPproxySi/Ab^UniPproxySi+Ab^UniPproxyPi", "note": "Further values from the same series stand in other lists.", "data": [{"compound": "CC(=O)N[C@H]1[C@H](O[C@@H]2[C@H](O[C@]3(C(=O)O)C[C@H](O)[C@@H](NC(C)=O)[C@H]([C@H](O)[C@@H](CO)O[C@]4(C(=O)O)C[C@H](O)[C@@H](NC(C)=O)[C@H]([C@H](O)[C@H](O)CO)O4)O3)[C@@H](O)[C@H](O[C@H]3[C@H](O)[C@@H](O)[C@H](N(CCOCCOCCNC(=O)[C@H](Cc4ccccc4)NC(=O)[C@H](Cc4ccccc4)NC(=O)CCCC(=O)NCCc4ccc(S(N)(=O)=O)cc4)C(C)=O)O[C@@H]3CO)O[C@@H]2CO)O[C@H](CO)[C@H](O)[C@@H]1O", "note": "[GA10, GalNAcβ1-4(Neu5Acα2-8 Neu5Acα2-3)Galβ1-4Glc-CL]", "values": [{"measurement": "relative abundance of OSmod substrate (Fig2d time course)", "setting": "time 5 min", "value": 0.9096}, {"measurement": "relative abundance of OSmod substrate (Fig2d time course)", "setting": "time 6 min", "value": 0.9066}, {"measurement": "relative abundance of OSmod substrate (Fig2d time course)", "setting": "time 85 min", "value": 0.9109}, {"measurement": "relative abundance of OSmod substrate (Fig2d time course)", "setting": "time 86 min", "value": 0.9081}, {"measurement": "relative abundance of OSmod substrate (Fig2d time course)", "setting": "time 87 min", "value": 0.9182}, {"measurement": "relative abundance of OSmod substrate (Fig2d time course)", "setting": "time 88 min", "value": 0.912}, {"measurement": "relative abundance of OSmod substrate (Fig2d time course)", "setting": "time 89 min", "value": 0.9104}, {"measurement": "relative abundance of OSmod substrate (Fig2d time course)", "setting": "time 90 min", "value": 0.8989}, {"measurement": "relative abundance of OSmod substrate (Fig2d time course)", "setting": "time 91 min", "value": 0.9136}, {"measurement": "relative abundance of OSmod substrate (Fig2d time course)", "setting": "time 92 min", "value": 0.9082}, {"measurement": "relative abundance of OSmod substrate (Fig2d time course)", "setting": "time 93 min", "value": 0.9116}, {"measurement": "relative abundance of OSmod substrate (Fig2d time course)", "setting": "time 94 min", "value": 0.9141}, {"measurement": "relative abundance of OSmod substrate (Fig2d time course)", "setting": "time 95 min", "value": 0.9105}, {"measurement": "relative abundance of OSmod substrate (Fig2d time course)", "setting": "time 96 min", "value": 0.9107}]}]}
